Reference: PubChem BioAssay AID493246 (Drosophila RNAi Screening Center, 2011)

- Test: 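Identify essential fly genes by loss of cell viability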 (primary screen)
- Cells: Drosophila Kc and S2R+ cells
- Reagent: long dsRNA against Drosophila genes
- Measured: 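Cell number per well after knock-down, printed as raw plate values; calls were based on per-plate z-scores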
- Direction: Kc cell number and S2R+ cell number: higher = more cells remaining
- Hit rule: 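Counted as a hit if cell number falls by a z-score of at least 3 within its plate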
The deposit covers about 21,000 reagents; below is a random part of those that have a named target and a result. Over the whole deposit, 429 (2%) are marked active. 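Values are raw and not normalised between plates; calls rest on per-plate z-scores that were not deposited.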 Entries without a mark were called inactive. Names joined by + are all predicted targets of the reagent. The record does not give: the amount of reagent, the time to read-out.

Target gene | amplicon | Kc cell number, rep 1 | Kc cell number, rep 2 | S2R+ cell number, rep 1 | S2R+ cell number, rep 2
Gdap2 | DRSC06789 | 1.69e6 | 1.73e6 | 1.40e6 | 1.61e6
Gdap2 | DRSC06790 | 1.63e6 | 1.67e6 | 1.38e6 | 1.57e6
Fur2 | DRSC19817 | 1.44e6 | 1.46e6 | 1.05e6 | 1.15e6
beta4GalNAcTB | DRSC14869 | 1.46e6 | 1.47e6 | 1.08e6 | 1.23e6
CG4835 | DRSC10452 | 1.46e6 | 1.37e6 | 8.66e5 | 9.29e5
Strump | DRSC09872 | 1.41e6 | 1.43e6 | 1.29e6 | 1.36e6
Tcs6 + PIG-P | DRSC13742 | 1.12e6 | 1.51e6 | 1.10e6 | 1.04e6
Tcs6 + PIG-P | DRSC14893 | 1.71e6 | 1.61e6 | 1.07e6 | 1.21e6
Vps25 | DRSC06486 | 1.97e6 | 1.98e6 | 1.48e6 | 1.67e6
CG15249 | DRSC17978 | 1.61e6 | 1.54e6 | 1.08e6 | 1.14e6
CG9377 | DRSC03217 | 1.33e6 | 1.43e6 | 1.25e6 | 1.37e6
CG17300 | DRSC10260 | 1.35e6 | 1.52e6 | 1.39e6 | 1.57e6
Setx | DRSC10859 | 1.79e6 | 1.86e6 | 1.16e6 | 1.19e6
Dbp45A | DRSC07395 | 1.37e6 | 1.44e6 | 1.14e6 | 1.24e6
CG9168 | DRSC08633 | 1.32e6 | 1.33e6 | 9.81e5 | 1.24e6
cpb | DRSC00809 | 1.61e6 | 1.58e6 | 9.05e5 | 9.22e5
Galphas | DRSC04616 | 1.42e6 | 1.59e6 | 1.09e6 | 9.51e5
GstD3 | DRSC15571 | 1.40e6 | 1.37e6 | 1.14e6 | 1.26e6
CG13474 | DRSC10018 | 1.40e6 | 1.67e6 | 1.16e6 | 1.39e6
hth | DRSC16967 | 1.50e6 | 1.74e6 | 1.38e6 | 1.53e6
CG4704 | DRSC15628 | 1.83e6 | 1.69e6 | 1.01e6 | 1.17e6

6 entries from above, arranged by “S2R+ cell number, rep 2”, ascending.
Target gene | amplicon | Kc cell number, rep 1 | Kc cell number, rep 2 | S2R+ cell number, rep 1 | S2R+ cell number, rep 2
CG4835 | DRSC10452 | 1.46e6 | 1.37e6 | 8.66e5 | 9.29e5
Fur2 | DRSC19817 | 1.44e6 | 1.46e6 | 1.05e6 | 1.15e6
beta4GalNAcTB | DRSC14869 | 1.46e6 | 1.47e6 | 1.08e6 | 1.23e6
Strump | DRSC09872 | 1.41e6 | 1.43e6 | 1.29e6 | 1.36e6
Gdap2 | DRSC06790 | 1.63e6 | 1.67e6 | 1.38e6 | 1.57e6
Gdap2 | DRSC06789 | 1.69e6 | 1.73e6 | 1.40e6 | 1.61e6

The results go on.
Target gene | amplicon | Kc cell number, rep 1 | Kc cell number, rep 2 | S2R+ cell number, rep 1 | S2R+ cell number, rep 2
Srp72 | DRSC15800 | 1.73e6 | 1.96e6 | 1.22e6 | 1.32e6
eloF | DRSC15162 | 1.73e6 | 1.85e6 | 1.30e6 | 1.37e6
CG7742 | DRSC03066 | 1.29e6 | 1.26e6 | 6.38e5 | 1.02e6
CG30183 | DRSC04450 | 1.48e6 | 1.54e6 | 1.29e6 | 1.36e6
CG30183 | DRSC04472 | 1.48e6 | 1.49e6 | 1.28e6 | 1.37e6
NHP2 | DRSC11229 | 1.28e6 | 1.45e6 | 1.20e6 | 1.32e6
CG15219 | DRSC03715 | 1.82e6 | 1.84e6 | 1.28e6 | 2.04e5
Fem-1 | DRSC07322 | 1.53e6 | 1.39e6 | 9.00e5 | 1.13e6
sbr | DRSC19770 | 1.50e6 | 1.51e6 | 8.36e5 | 9.31e5
sbr | DRSC20368 | 1.22e6 (active) | 1.26e6 | 6.49e5 | 7.71e5
CG12857 | DRSC06197 | 1.47e6 | 1.52e6 | 1.19e6 | 1.29e6
CG17568 | DRSC02628 | 1.30e6 | 1.41e6 | 1.02e6 | 1.18e6
yip2 | DRSC03640 | 1.63e6 | 1.60e6 | 1.28e6 | 1.45e6
CG14931 | DRSC02413 | 1.77e6 | 1.69e6 | 1.19e6 | 1.45e6
dmt | DRSC16932 | 1.55e6 | 1.53e6 | 8.62e5 | 9.80e5
CG11400 | DRSC06070 | 1.52e6 | 1.55e6 | 1.18e6 | 1.27e6
AIF | DRSC00696 | 1.24e6 | 1.23e6 | 7.91e5 | 7.90e5
CG8399 | DRSC07163 | 1.34e6 | 1.42e6 | 1.11e6 | 1.12e6
Ppi1 | DRSC15421 | 4.33e5 | – | 6.63e5 | –
